Measured data: PubChem BioAssay AID1159578 (Peter MacCallum Cancer Centre, 2015)
Aim: 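Knock-downs that alter how fast lymphatic endothelial cells migrate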 (primary screen). Cell system: human lymphatic endothelial cells. Knock-down reagent: siRNA pool against human genes, 40 nM. Time to read-out: 48 h after transfection. Measured: 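High-content imaging of dye-stained cells in a scratch assay measures filled wound area and nuclei per well; duplicate means given as ratio to mock and robust z-score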. Direction: migration robust z-score: higher = faster migration into the scratch; migration relative to mock: higher = more scratch area covered than mock; nuclei per well: higher = more cells in the well. Active means: 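Pools averaging fewer than 3300 nuclei are never called; remaining pools count as changed when migration robust z lies outside -2 to 2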. Meaning of the calls: active = migration changed; inactive = no migration change, or too few cells.
The whole screen tested about 18,000 reagents; below is a random part of them. About 1,030 of all reagents (5.7%) count as active. 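Inactive calls also include pools with fewer than 3300 nuclei, whose migration was not assessed.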 Raw values are not corrected between plates. Unmarked entries are inactive.

migration robust z-score,migration class with cell-count check,migration relative to mock,"nuclei per well, duplicate mean",target gene
0.57,migration z between -2 and 2; enough cells,1.04,6810,CSRP1
0.88,migration z between -2 and 2; enough cells,0.97,6248,NAALAD2
-0.52,migration z between -2 and 2; enough cells,0.75,5496,H2AC4
-0.84,migration z between -2 and 2; enough cells,0.66,5889,RGS16
1.94,migration z between -2 and 2; enough cells,1.18,4696,MIB1
-0.86,migration z between -2 and 2; enough cells,0.64,5202,VEGFD
-0.29,migration z between -2 and 2; enough cells,0.75,6048,ATP13A3
0.13,migration z between -2 and 2; enough cells,0.83,4682,TGM5
-0.4,migration z between -2 and 2; enough cells,0.78,4564,SF3A1
0.99,migration z between -2 and 2; enough cells,1,6550,LIPA
0.05,migration z between -2 and 2; enough cells,0.9,7264,SACK1D
0.76,migration z between -2 and 2; enough cells,0.95,5890,CBS
-0.5,migration z between -2 and 2; enough cells,0.71,6437,USP8
1.66,migration z between -2 and 2; enough cells,1.31,5897,C6orf120
0.83,migration z between -2 and 2; enough cells,0.97,7112,NDUFA6
-2.31 (active),migration z below -2; enough cells,0.36,5122,SRR
-0.05,migration z between -2 and 2; enough cells,0.87,7062,TNIP1
0.32,migration z between -2 and 2; enough cells,0.86,5104,ADAMTS2
-0.34,migration z between -2 and 2; enough cells,0.8,5096,DPM2
-0.48,migration z between -2 and 2; enough cells,0.76,6472,TRMT6
1.97,migration z between -2 and 2; enough cells,1.39,5428,TRIAP1
1.8,migration z between -2 and 2; enough cells,1.36,6194,TMEM139
1.48,migration z between -2 and 2; enough cells,1.09,4974,GAR1

Not a retest: 2 of the entries above.
migration robust z-score,migration class with cell-count check,migration relative to mock,"nuclei per well, duplicate mean",target gene
0.32,migration z between -2 and 2; enough cells,0.86,5104,ADAMTS2
-0.34,migration z between -2 and 2; enough cells,0.8,5096,DPM2
